{"sequences": {"note": "Amino acid sequences for entries named in this document (tags omitted).", "UniProt P29375": "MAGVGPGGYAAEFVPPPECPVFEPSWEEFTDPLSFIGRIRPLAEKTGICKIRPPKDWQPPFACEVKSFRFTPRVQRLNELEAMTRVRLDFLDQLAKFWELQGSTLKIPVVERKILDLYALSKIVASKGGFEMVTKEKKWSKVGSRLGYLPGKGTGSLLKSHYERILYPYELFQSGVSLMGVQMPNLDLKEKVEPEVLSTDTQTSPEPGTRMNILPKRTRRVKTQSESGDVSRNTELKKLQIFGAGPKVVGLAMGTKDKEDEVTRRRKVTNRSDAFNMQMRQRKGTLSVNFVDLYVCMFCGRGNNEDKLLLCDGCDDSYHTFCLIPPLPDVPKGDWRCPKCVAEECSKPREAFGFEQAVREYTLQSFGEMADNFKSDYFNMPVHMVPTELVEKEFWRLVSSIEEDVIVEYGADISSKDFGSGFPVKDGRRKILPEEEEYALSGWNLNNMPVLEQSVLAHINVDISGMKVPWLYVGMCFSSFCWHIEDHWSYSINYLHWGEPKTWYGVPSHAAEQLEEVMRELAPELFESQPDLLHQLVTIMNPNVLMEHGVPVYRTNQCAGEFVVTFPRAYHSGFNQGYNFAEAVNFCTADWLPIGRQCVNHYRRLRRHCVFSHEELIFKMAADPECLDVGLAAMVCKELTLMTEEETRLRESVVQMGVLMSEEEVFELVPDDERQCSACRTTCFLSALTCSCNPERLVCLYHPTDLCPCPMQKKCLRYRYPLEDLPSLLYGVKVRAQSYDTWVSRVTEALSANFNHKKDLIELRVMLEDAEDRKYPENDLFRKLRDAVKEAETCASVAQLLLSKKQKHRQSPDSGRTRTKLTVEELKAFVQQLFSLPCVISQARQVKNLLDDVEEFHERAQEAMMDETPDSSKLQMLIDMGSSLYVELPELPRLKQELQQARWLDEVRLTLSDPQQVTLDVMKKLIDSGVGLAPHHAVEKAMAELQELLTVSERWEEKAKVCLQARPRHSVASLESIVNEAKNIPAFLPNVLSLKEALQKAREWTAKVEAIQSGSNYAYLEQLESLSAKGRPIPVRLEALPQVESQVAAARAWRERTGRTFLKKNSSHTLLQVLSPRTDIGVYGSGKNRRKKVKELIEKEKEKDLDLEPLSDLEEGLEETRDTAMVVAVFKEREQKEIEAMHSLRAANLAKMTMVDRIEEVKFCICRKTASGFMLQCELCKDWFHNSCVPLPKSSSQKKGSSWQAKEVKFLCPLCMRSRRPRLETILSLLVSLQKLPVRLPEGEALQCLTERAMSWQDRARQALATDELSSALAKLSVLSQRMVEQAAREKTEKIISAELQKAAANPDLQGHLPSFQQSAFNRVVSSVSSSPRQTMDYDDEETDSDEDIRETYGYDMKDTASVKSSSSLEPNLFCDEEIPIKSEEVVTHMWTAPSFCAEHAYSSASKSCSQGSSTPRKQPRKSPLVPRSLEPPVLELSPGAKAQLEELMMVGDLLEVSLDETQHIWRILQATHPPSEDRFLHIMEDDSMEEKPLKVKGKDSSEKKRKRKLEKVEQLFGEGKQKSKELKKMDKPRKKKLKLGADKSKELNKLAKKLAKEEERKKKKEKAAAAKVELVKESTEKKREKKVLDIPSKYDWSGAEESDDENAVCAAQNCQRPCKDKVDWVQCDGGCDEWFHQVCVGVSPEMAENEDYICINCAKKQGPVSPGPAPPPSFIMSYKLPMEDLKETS"}, "source": "paper PMC10257648", "binders": {"B1": {"name": "RNA export 1 (RAE1) protein (protein, UniProt P78406 1-368)", "chain": "MSLFGTTSGFGTSGTSMFGSATTDNHNPMKDIEVTSSPDDSIGCLSFSPPTLPGNFLIAGSWANDVRCWEVQDSGQTIPKAQQMHTGPVLDVCWSDDGSKVFTASCDKTAKMWDLSSNQAIQIAQHDAPVKTIHWIKAPNYSCVMTGSWDKTLKFWDTRSSNPMMVLQLPERCYCADVIYPMAVVATAERGLIVYQLENQPSEFRRIESPLKHQHRCVAIFKDKQNKPTGFALGSIEGRVAIHYINPPNPAKDNFTFKCHRSNGTNTSAPQDIYAVNGIAFHPVHGTLATVGSDGRFSFWDKDARTKLKTSEQLDQPISACCFNHNGNIFAYASSYDWSKGHEFYNPQKKNYIFLRNAAEELKPRNKK"}}, "target": "endogenous KDM5A protein (human (endogenous in iPSC PBMC2-iPS4F8 clones)) (UniProt P29375)", "test": "co-IP; pulldown against KDM5A (anti-KDM5A antibody) from mitotic extracts of nocodazole-arrested cells (iPSC-control#1, iPSC-NK5A#29, CHRF-288-11), Western blot with anti-KDM5A and anti-RAE1 antibodies", "note": "No constants are given. Whether binding was seen depends on the method and setting. Binding seen in cells or lysates may run through a third protein.", "data": [{"binder": "B1", "values": [{"measurement": "binding", "result": "no binding"}]}]}
